Reference: the supplement of paper PMC12819154, “High-throughput peptide-centric local stability assay extends protein–ligand identification to membrane proteins, tissues and bacteria” (Nature Structural & Molecular Biology, 2025)
The list shows a part of the results. Small differences around the control level are noise.

By UniProt entry, the sequences of proteins in these tests, tags left out. Where a name states a change or a piece, a line headed by the entry shows the natural chain unless it says otherwise.
UniProt Q15651: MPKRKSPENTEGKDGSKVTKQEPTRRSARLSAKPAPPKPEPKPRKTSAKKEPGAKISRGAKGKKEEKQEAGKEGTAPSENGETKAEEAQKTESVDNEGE
UniProt Q460N5, whole entry: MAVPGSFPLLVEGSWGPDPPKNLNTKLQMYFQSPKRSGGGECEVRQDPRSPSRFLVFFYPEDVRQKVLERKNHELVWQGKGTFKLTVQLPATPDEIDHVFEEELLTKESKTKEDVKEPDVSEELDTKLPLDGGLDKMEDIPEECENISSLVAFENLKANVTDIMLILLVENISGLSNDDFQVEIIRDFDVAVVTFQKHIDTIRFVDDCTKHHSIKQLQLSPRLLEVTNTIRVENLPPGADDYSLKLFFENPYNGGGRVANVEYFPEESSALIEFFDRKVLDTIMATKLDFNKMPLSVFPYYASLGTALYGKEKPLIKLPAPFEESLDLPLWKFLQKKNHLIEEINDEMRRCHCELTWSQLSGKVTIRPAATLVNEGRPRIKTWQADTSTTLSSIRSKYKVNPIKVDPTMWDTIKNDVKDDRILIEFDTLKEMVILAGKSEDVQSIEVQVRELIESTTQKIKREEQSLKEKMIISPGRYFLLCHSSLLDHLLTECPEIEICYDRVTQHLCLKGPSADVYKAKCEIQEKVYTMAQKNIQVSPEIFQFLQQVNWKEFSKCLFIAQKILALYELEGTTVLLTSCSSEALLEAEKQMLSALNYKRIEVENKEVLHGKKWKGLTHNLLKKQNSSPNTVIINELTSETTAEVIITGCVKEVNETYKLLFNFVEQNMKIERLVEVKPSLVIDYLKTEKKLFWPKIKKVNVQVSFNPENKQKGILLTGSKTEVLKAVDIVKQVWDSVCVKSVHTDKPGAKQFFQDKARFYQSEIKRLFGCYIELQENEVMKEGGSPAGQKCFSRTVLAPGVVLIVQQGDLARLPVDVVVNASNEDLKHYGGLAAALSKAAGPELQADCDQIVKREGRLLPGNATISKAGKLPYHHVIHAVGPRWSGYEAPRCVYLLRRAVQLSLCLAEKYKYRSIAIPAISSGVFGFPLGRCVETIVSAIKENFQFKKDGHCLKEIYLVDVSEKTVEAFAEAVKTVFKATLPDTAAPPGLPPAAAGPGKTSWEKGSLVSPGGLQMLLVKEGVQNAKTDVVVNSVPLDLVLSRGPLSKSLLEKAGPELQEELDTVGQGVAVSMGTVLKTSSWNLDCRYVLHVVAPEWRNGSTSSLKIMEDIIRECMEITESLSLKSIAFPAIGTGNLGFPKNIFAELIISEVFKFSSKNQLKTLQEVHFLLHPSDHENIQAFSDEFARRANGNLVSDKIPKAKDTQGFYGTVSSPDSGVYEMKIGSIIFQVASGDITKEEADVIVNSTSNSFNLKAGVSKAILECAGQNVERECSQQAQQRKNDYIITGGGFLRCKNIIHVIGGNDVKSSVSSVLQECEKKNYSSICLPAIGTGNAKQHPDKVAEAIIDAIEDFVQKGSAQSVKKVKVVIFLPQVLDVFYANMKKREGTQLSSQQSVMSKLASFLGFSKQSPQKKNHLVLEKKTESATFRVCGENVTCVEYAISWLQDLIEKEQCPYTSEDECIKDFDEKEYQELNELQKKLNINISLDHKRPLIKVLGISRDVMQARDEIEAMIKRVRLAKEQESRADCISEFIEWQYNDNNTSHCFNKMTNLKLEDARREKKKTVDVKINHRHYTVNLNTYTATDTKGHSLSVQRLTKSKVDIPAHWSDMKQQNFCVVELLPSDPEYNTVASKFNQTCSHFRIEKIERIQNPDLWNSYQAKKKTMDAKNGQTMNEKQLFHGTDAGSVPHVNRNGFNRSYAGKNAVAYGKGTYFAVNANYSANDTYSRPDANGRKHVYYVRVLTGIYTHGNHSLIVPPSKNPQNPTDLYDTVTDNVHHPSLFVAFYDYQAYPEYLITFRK
UniProt Q15750: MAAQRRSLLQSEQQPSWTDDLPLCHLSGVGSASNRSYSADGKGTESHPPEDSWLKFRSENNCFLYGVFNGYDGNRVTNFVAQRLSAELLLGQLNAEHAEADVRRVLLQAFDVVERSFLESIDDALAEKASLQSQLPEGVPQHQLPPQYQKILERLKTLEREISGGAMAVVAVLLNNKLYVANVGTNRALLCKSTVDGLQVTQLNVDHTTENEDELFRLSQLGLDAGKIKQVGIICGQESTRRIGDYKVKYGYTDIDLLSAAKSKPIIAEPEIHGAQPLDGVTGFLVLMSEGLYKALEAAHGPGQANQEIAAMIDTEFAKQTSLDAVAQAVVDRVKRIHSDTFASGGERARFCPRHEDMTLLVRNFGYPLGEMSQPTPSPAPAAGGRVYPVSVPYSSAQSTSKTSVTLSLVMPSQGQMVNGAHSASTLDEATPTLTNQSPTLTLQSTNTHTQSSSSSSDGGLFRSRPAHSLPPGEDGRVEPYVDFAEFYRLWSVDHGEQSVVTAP
UniProt Q3ZCX4: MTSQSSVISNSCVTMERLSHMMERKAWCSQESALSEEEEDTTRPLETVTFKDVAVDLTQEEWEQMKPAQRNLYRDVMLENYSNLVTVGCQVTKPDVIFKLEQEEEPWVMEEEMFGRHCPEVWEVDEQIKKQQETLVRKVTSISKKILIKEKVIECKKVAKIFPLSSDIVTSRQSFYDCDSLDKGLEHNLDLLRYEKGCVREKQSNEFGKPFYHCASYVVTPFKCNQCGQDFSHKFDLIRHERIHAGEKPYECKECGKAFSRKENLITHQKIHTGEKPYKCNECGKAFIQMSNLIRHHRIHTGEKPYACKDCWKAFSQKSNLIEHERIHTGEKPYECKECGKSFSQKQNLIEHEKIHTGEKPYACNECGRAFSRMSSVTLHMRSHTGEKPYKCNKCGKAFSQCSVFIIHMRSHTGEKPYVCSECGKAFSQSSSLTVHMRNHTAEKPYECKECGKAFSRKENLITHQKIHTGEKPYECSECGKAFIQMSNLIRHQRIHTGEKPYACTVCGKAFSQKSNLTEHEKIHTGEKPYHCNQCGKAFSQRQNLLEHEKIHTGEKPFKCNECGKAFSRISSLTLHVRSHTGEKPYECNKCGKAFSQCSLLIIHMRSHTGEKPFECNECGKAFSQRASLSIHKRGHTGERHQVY
UniProt Q16637, whole entry: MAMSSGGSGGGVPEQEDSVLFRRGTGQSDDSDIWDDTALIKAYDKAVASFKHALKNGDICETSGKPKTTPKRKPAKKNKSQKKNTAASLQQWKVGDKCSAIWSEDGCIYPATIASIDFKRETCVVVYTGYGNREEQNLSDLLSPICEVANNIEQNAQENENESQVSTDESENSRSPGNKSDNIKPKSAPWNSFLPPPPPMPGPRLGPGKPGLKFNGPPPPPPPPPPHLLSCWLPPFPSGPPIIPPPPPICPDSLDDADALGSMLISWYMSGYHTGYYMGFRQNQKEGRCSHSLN
UniProt Q3KRA9: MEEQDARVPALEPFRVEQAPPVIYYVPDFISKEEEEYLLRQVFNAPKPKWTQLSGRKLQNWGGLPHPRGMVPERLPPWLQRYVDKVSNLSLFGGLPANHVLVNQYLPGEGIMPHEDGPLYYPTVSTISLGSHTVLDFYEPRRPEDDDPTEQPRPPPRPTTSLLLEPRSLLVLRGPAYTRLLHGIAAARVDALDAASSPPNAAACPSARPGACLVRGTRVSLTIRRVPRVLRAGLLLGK
UniProt Q15973: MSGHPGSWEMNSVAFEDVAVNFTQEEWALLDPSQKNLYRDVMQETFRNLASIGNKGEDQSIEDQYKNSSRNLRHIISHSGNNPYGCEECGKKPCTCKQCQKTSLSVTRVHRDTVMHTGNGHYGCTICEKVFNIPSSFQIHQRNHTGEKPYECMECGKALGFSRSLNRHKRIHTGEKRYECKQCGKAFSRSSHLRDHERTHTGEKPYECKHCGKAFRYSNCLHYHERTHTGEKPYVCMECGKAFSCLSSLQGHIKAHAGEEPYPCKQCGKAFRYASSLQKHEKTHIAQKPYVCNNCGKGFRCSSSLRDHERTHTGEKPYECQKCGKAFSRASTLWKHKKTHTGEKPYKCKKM
UniProt Q32P51: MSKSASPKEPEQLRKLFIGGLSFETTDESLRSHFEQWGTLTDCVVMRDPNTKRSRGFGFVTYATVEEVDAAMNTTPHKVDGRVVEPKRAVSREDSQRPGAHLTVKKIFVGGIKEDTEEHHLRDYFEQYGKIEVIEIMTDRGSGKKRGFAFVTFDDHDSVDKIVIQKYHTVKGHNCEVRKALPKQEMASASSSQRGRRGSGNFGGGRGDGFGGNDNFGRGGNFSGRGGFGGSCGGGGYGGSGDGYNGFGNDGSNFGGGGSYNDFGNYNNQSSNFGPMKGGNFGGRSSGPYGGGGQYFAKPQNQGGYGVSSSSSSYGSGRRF
UniProt Q15643: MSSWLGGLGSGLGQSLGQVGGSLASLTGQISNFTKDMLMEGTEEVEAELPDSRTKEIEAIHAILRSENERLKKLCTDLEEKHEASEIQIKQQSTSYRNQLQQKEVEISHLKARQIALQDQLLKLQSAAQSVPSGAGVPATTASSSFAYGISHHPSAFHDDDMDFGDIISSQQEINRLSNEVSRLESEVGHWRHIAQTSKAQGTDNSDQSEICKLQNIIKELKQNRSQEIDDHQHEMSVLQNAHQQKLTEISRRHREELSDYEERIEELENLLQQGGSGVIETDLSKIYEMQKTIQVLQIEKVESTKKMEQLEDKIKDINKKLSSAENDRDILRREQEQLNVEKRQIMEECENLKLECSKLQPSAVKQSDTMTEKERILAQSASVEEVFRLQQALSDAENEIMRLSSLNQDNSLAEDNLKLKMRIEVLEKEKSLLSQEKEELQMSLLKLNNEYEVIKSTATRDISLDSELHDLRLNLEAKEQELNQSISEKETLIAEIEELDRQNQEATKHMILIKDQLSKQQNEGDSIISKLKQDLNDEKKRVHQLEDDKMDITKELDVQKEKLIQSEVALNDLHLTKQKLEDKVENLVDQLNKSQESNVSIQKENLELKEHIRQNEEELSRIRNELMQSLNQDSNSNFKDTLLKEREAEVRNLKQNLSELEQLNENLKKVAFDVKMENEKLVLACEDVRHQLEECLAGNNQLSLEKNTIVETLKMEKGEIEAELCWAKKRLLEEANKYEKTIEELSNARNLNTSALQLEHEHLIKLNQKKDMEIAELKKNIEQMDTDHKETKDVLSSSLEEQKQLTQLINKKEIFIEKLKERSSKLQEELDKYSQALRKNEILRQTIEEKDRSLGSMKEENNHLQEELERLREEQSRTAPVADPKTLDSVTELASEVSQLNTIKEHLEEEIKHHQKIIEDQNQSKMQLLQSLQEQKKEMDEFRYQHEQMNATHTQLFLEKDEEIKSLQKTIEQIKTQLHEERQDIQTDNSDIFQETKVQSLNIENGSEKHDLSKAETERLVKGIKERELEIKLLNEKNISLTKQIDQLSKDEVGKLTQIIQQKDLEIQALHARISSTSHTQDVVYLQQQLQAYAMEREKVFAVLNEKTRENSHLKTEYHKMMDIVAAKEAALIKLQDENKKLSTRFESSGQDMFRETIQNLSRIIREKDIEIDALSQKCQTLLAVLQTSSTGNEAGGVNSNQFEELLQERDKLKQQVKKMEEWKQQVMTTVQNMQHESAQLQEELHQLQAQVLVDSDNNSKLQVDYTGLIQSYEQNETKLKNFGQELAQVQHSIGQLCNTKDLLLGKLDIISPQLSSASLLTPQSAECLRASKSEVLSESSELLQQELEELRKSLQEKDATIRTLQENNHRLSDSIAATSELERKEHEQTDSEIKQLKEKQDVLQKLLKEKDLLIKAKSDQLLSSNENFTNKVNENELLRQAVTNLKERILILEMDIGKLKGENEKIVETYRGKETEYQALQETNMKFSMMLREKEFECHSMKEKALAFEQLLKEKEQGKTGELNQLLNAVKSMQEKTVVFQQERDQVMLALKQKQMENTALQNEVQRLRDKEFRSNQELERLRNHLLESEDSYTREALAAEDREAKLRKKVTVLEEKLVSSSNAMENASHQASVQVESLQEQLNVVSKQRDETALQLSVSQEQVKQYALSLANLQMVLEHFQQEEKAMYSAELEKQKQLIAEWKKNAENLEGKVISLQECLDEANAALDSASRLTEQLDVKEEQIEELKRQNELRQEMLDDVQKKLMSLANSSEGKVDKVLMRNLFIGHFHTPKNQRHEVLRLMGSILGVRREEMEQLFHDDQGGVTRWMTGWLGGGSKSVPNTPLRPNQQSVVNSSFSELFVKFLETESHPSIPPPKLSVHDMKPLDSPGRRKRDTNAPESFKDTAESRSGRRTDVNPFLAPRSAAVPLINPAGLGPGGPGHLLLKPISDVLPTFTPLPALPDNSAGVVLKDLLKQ
UniProt Q17RN3: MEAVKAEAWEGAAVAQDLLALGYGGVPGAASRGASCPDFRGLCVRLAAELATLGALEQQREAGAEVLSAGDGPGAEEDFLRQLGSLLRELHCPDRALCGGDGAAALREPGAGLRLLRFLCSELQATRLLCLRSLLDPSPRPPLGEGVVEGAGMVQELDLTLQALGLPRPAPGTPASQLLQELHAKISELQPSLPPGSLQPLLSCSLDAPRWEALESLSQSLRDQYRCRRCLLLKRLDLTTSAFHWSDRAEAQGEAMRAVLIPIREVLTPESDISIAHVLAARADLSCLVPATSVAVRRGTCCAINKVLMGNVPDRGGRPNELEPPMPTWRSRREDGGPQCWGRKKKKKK

Compound: CN[C@@H]1C[C@H]2O[C@@](C)([C@@H]1OC)n1c3ccccc3c3c4c(c5c6ccccc6n2c5c31)C(=O)NC4 [staurosporine]
Test: log2 fold change of tryptic peptide abundance, ligand vs vehicle (limited proteolysis) (log2 ratio); higher = more trypsin-susceptible (destabilized)
Conditions: ligand concentration: 20 uM; sample: K562 cleared lysate; digestion: 4 min, 22 C (HT-PELSA RT4min, Orbitrap Astral)

Row | Target | log2 fold change
1 | KIF14 (peptide sequence: FNHPVEVQK, peptide start residue: 898) (UniProt Q15058) | 0.633
2 | UniProt Q15369 (peptide sequence: EIPSHVLSK, peptide start residue: 64) | 0.321
3 | UniProt Q3B7T1 (peptide sequence: VLADLHYSK, peptide start residue: 1053) | -0.609
4 | NEDD8 (peptide sequence: QMNDEKTAADYK, peptide start residue: 49) (UniProt Q15843) | -0.272
5 | DDB1 (peptide sequence: MQEVVANLQYDDGSGMK, peptide start residue: 1105) (UniProt Q16531) | -0.287
6 | UniProt Q15651 (peptide sequence: EGTAPSENGETK, peptide start residue: 73) | -0.272
7 | BRD3 (peptide sequence: RKADTTTPTTSAITASR, peptide start residue: 244) (UniProt Q15059) | -0.433
8 | UniProt Q2PPJ7 (peptide sequence: IIQTVGGGAVQER, peptide start residue: 333) | 0.241
9 | PARP14 (peptide sequence: SKVDIPAHWSDMK, peptide start residue: 1601) (UniProt Q460N5) | 0.971
10 | HKDC1 (peptide sequence: MLPTFVR, peptide start residue: 63) (UniProt Q2TB90) | 0.179
11 | ELAVL1 (peptide sequence: SNGYEDHMAEDCR, peptide start residue: 2) (UniProt Q15717) | -0.535
12 | TEAD2 (peptide sequence: IILSDEGK, peptide start residue: 58) (UniProt Q15562) | 0.203
13 | UniProt Q16584 (peptide sequence: ITVQASPGLDR, peptide start residue: 502) | -0.287
14 | TRMT5 (peptide sequence: YNLELTYEHFKSEEILR, peptide start residue: 171) (UniProt Q32P41) | 0.425
15 | UniProt Q2TAK8 (peptide sequence: QTLLNQAR, peptide start residue: 471) | 0.329
16 | INPP5J (peptide sequence: SLGLLPALR, peptide start residue: 957) (UniProt Q15735) | -0.041
17 | UniProt Q15365 (peptide sequence: QQSHFAMMHGGTGFAGIDSSSPEVK, peptide start residue: 244) | -0.11
18 | UniProt Q16143 (peptide sequence: TKQGVTEAAEK, peptide start residue: 22) | 0.161

Row | Target | log2 fold change
19 | FUT11 (peptide sequence: LWRPMHLGAVPVYR, peptide start residue: 293) (UniProt Q495W5) | -0.721
20 | UniProt Q496Y0 (peptide sequence: VLLTQADALASR, peptide start residue: 69) | -0.315
21 | UniProt Q15750 (peptide sequence: LSAELLLGQLNAEHAEADVRR, peptide start residue: 84) | -0.119
22 | UniProt Q3ZCX4 (peptide sequence: KENLITHQK, peptide start residue: 262) | -0.188
23 | UniProt Q16637 (peptide sequence: SPGNKSDNIKPK, peptide start residue: 175) | -0.526
24 | PPP2R5A (peptide sequence: ELEREELWK, peptide start residue: 448) (UniProt Q15172) | -0.164
25 | ALKBH6 (peptide sequence: GMVPERLPPWLQR, peptide start residue: 69) (UniProt Q3KRA9) | 0.198
26 | E2F4 (peptide sequence: ELSEIFDPTR, peptide start residue: 351) (UniProt Q16254) | 0.722
27 | UniProt Q15973 (peptide sequence: GEDQSIEDQYK, peptide start residue: 56) | -0.554
28 | ITSN1 (peptide sequence: SGPGSQLNTK, peptide start residue: 188) (UniProt Q15811) | -0.264
29 | HNRNPA1L2 (peptide sequence: GHNCEVR, peptide start residue: 172) (UniProt Q32P51) | 0.553
30 | STIL (peptide sequence: NITNEVLQTK, peptide start residue: 1197) (UniProt Q15468) | -0.17
31 | PCBP2 (peptide sequence: MREESGAR, peptide start residue: 39) (UniProt Q15366) | 0.265
32 | TRIP13 (peptide sequence: IDVAFVDR, peptide start residue: 305) (UniProt Q15645) | 0.0907
33 | TRIP11 (peptide sequence: EKVFAVLNEK, peptide start residue: 1099) (UniProt Q15643) | 0.574
34 | ARL13B (peptide sequence: LEPLGETHHNDFYR, peptide start residue: 394) (UniProt Q3SXY8) | -0.311
35 | ATP2B3 (peptide sequence: KPYGRDK, peptide start residue: 912) (UniProt Q16720) | 0.15
36 | FAM98C (peptide sequence: VLMGNVPDR, peptide start residue: 307) (UniProt Q17RN3) | -0.209

Looked up above:
For log2 fold change, UniProt Q15750 (peptide sequence: LSAELLLGQLNAEHAEADVRR, peptide start residue: 84) has -0.119
For log2 fold change, UniProt Q16143 (peptide sequence: TKQGVTEAAEK, peptide start residue: 22) has 0.161
